US20200188477A1, “A MEDICAMENT FOR THE TREATMENT OF DISEASES BY BIOFILM FORMING MICROORGANISMS” (priority 2017, published 2020)
At least one compound was matched to its structure with a doubt left.

Sequences of proteins named here, by UniProt entry; tags and fusion partners are left off. A change or cut given only in a name is not applied to a line headed by its entry.
UniProt P9WHW1: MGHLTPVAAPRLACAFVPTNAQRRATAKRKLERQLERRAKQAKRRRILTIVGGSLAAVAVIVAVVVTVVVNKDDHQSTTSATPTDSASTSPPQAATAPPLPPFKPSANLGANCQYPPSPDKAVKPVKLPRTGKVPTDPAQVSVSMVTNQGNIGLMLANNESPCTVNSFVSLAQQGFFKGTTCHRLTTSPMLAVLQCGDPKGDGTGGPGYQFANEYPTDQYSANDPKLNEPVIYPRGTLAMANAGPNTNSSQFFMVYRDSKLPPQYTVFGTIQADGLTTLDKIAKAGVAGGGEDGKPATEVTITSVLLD

Molecular target: M. tb PpiB (Mycobacterium tuberculosis, UniProt P9WHW1)
Test: Surface plasma resonance (SPR) physical interaction
Type: binding
Conditions: dose dependent; association 300 seconds, dissociation 150 seconds

SMILES: C[C@H]1O[C@H](O[C@H]2[C@H](O)[C@@H](O)[C@@H](O[C@H]3[C@H](O)[C@@H](O)C(O)O[C@@H]3CO)O[C@@H]2CO)[C@H](O)[C@@H](O)[C@@H]1N[C@H]1C=C(CO)[C@@H](O)[C@H](O)[C@H]1O (stereo partly shown) [acarbose]
- SPR interaction with immobilized PpiB: bind with high affinity
